Results taken from paper PMC7539533.

Biological target: YFP-NEDD4-WW, WW domains of NEDD4 fused to EYFP
Assay: co-IP; HEK293T transfected with YFP-NEDD4-WW, myc-GOPC and untagged pUL56 or pUL56-AAXA; IP with YFP affinity resin; immunoblot

B1: untagged pUL56 (WT) (protein, UniProt P10240 1-234)
chain: MASEAAQPDAGLWSAGNAFADPPPPYDSLSGRNEGPFVVIDLDTPTDPPPPYSAGPLLSVPIPPTSSGEGEASERGRSRQAAQRAARRARRRAERRAQRRSFGPGGLLATPLFLPETRLVAPPDITRDLLSGLPTYAEAMSDHPPTYATVVAVRSTEQPSGALAPDDQRRTQNSGAWRPPRVNSRELYRAQRAARGSSDHAPYRRQGCCGVVWRHAVFGVVAIVVVIILVFLWR
B1 was tested, and the binding was “binds”.

These are yes or no findings as the source states them, for the method shown. Binding seen in cells or lysates may run through a third protein. Binding calls can cover weak binding; strength is not graded here. Where a sequence is shown, tags or fusion partners need not be part of it.
